Measured values reported in patent US20260226131A1 (SHANGHAI INSTITUTE OF MATERIA MEDICA CHINESE ACADEMY OF …, published 2026).
Changes are numbered by the printed parent chain. Numbers in names are those of the source. Results are given in words; binding and its absence hold for the method and conditions named. Binding calls can cover weak binding; strength is not graded here. Sequences can lack the tags named with a protein. Values belong to the binder of their own block, whether it stands above or below them.

Chains of the proteins cited; added tags and fusions are not shown. Lines headed by an entry give the natural chain unless they say otherwise; changes in a name come on top.
UniProt P06213: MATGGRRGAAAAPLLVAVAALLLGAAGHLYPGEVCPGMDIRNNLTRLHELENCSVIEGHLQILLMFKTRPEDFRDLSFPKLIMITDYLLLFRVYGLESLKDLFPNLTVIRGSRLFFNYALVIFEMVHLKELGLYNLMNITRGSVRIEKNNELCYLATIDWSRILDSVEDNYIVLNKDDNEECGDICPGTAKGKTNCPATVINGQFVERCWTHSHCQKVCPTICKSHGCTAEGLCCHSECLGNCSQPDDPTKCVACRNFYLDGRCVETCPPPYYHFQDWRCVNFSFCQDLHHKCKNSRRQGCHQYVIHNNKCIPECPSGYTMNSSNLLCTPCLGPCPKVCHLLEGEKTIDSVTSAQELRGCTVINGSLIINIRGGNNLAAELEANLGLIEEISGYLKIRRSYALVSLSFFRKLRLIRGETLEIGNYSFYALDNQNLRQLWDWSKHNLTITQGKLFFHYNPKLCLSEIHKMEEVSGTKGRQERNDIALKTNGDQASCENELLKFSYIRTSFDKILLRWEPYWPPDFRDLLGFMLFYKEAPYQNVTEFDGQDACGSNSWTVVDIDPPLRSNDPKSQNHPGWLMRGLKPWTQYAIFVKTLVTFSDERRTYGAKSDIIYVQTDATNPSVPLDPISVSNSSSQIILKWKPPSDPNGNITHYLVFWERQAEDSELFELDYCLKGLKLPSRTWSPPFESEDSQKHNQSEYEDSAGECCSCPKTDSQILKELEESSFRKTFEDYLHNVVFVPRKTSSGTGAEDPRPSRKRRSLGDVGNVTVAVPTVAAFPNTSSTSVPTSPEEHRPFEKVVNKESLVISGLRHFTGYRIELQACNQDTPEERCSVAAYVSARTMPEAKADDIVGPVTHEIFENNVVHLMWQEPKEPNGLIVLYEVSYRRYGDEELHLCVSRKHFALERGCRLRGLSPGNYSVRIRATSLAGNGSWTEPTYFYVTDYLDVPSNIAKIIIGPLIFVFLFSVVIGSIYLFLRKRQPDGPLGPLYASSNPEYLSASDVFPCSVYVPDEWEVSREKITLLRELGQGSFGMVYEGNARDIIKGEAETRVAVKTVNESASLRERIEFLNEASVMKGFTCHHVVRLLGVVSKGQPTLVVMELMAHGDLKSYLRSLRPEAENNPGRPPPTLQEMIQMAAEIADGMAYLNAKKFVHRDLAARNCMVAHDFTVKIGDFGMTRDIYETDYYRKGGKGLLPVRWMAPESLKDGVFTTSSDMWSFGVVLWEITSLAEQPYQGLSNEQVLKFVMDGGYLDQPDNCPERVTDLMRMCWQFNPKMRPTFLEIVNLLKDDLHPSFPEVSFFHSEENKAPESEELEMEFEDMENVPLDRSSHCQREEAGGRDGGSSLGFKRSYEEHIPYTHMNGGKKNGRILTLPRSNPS

Target: human insulin receptor extracellular domain protein (hIRB-ECD, Sino Biological Inc.) (human) (UniProt P06213)
Test: ELISA, coated hIRB-ECD

binding: binds
B1: Insulin-Fc fusion protein of Example 5 (B5-A+A21G) (Fc fusion)
chain: FVNQALCGSHLVEALYLVCGERGFFYTPKTGGVGGGGIVEQCCTSICSLYQLENYCGGGGGSGGGGSGGGGSGGGGSERKSSVESPPSPAPPVAGPSVFLFPPKPKDTLMISRTPEVTCVVVDVSQEDPEVQFNWYVDGVEVHNAKTKPREEQFNSTFRVVSVLTVLHQDWLNGKEYKCKVSNKGLPSSIEKTISKTKGQPREPQVYTLPPSREEMTKNQVSLTCLVKGFYPSDIAVEWESNGQPENNYKTTPPMLDSDGSFFLYSKLTVDKSRWQQGNVFSCSVMHEALHNHYTQKSLSLSLG

binding: binds
B2: Insulin-Fc fusion protein of Example 7 (B25-T+B27-E A3-A+A21G) (Fc fusion)
chain: B1 chain with A5H, F25T, T27E, V39A

binding: binds
B3: Insulin-Fc fusion protein of Example 6 (B16-A+A3-A+A21G) (Fc fusion)
chain: B1 chain with A5H, Y16A, V39A
